Source: patent publication US20260034206A1
Results are given in words; binding and its absence hold for the method and conditions named. Some entries that bind do so weakly or less than the wild type. For some assays here: Tags and fused reporters may be left off the sequences shown.

Tests used:
[1] = target: G434-P548-His6 recombinant peptide of BFSP1 (human) (UniProt Q12934); experiment: self-association; electron microscopy with negative staining, SEC
[2] = target: Myr-G434-P548-His6 fragment of BFSP1 (human) (UniProt Q12934); experiment: as above

binding [2]	Molecule	binding [1]
–	G434-P548-His6 recombinant peptide of BFSP1 (from UniProt Q12934 434-548)	binds
binds	Myr-G434-P548-His6 fragment of BFSP1 (protein) GGQISKGFGKLYRKVKEKVRSPKEPETPTELYTKERHVLVTGDANYVDPRFYVSSITAKGGVAVSVAEDSVLYDGQVEPSPESPKPPLENGQVGLQEKEDGQPIDQQPIDKEIEPHHHHHH	–
